Test results: patent US10188756B2, “Imaging histone deacetylases with a radiotracer using positron emission tomography” (THE GENERAL HOSPITAL CORPORATION, priority 2013, dated 2019)
At least one structure is not confirmed: it was looked up by name or label, or the drawing left a doubt.

Key:
histone deacetylases [1] = assay: Rodent PET/CT imaging with [11C]CN133; type: in vivo, rats (Sprague Dawley); settings: rat
Method: Male Sprague-Dawley rats were utilized in pairs, anesthetized with inhalational isoflurane (Forane) at 3% in a carrier of 2 L/min medical oxygen and maintained at 2% isoflurane for the duration of the scan. The rats were arranged head-to-head in a Triumph Trimodality PET/CT/SPECT scanner (Gamma Medica, Northridge, Calif., USA). Rats were injected standard references or vehicle via a lateral tail vein catheterization at the start of PET acquisition. Dynamic PET acquisition lasted for 60 minutes and was followed by computed tomography (CT) for anatomic coregistration. PET data were reconstructed using a 3D-MLEM method resulting in a full width at half-maximum resolution of 1 mm. Reconstructed images were exported from the scanner in DICOM format along with an anatomic CT for rodent studies. These files were imported to PMOD (PMOD Technologies, Ltd.) and manually coregistered using six degrees of freedom.
Volumes of interest (VOIs) were drawn manually as spheres in brain regions guided by high resolution CT structural images and summed PET data, with a radius no less than 1 mm to minimize partial volume effects. Time-activity curves (TACs) were exported in terms of decay corrected activity per unit volume at specified time points with gradually increasing intervals. The TACs were expressed as percent injected dose per unit volume for analysis.

histone deacetylases [2] = assay: Baboon PET/MR imaging with [11C]CN133; type: in vivo, baboon (Papio anubis); settings: intravenous; CN133 0.01-1.0 mg/kg; CN147 0.5 mg/kg
Method: A female Papio Anubis baboon, deprived of food for 12 hours prior to the study, was administered intramuscular ketamine (10 mg/kg) and intubated. For maintenance of anesthesia throughout the study, the baboon was provided 1%-4% isoflurane (Forane) in a mixture of medical oxygen and nitrogen. The baboon was catheterized antecubitally for radiotracer injection and a radial arterial line was placed for metabolite analysis. MR-PET images were acquired in a BiographmMR scanner (Siemens, Munich, Germany), and PET compatible 8-channel coil arrays for non-human primate brain imaging with a PET resolution of 5 mm and field of view of 59.4 cm and 25.8 cm (transaxial and axial, respectively). […] Dynamic data from the PET scans were recorded in list mode and corrected for attenuation. […]
Volumes of interest (VOIs) were drawn manually as spheres in brain regions guided by high resolution MR structural images and summed PET data, with a radius no less than 4 mm. […] The TACs were expressed as percent injected dose per unit volume for analysis.
Arterial samples collected during imaging from the baboon were centrifuged to obtain plasma, which was then removed and placed in an automated gamma counter that was calibrated to the PET scanner. […] Each sample was counted in a WIZARD2 Automatic Gamma Counter to determine the presence of radiolabeled metabolites. […]

[3] = 5 mg/kg i.p., 2.5 hours prior to radiotracer

Q: `CN(Cc1ccc(/C=C/C(=O)Nc2ccccc2N)cc1)CC12CC3CC(CC(C3)C1)C2` [CN147] was tested. Which “occupancy of HDAC targets in brain” value (histone deacetylases [1]; 0.1 mg/kg) did it give?
A: sufficient to robustly occupy HDAC targets in brain

Q: What about the “blocking of [11C]CN133 uptake in baboon brain” value (histone deacetylases [2]) of the same compound?
A: blocks radiotracer uptake in baboon brain

Q: Which “occupancy of HDAC targets in brain” value (histone deacetylases [1]; [3]) does the source give for `CN(Cc1ccc(/C=C/C(=O)Nc2ccc(-c3ccccc3)cc2N)cc1)CC12CC3CC(CC(C3)C1)C2` [CN161] here?
A: occupy HDAC targets in brain

Q: For `CN(Cc1ccc(/C=C/C(=O)Nc2ccc(-c3cccs3)cc2N)cc1)CC12CC3CC(CC(C3)C1)C2` [CN162], which “occupancy of HDAC targets in brain” value (histone deacetylases [1]; [3]) is on record?
A: occupy HDAC targets in brain
